Data reported in the supplement of paper PMC10060354, “Discovery of a small molecule ligand of FRS2 that inhibits invasion and tumor growth” (Cellular Oncology, 2022).
Repeats are few or missing, and single values can be far off.

The chains behind the UniProt entries cited, without tags or fusion partners. Where a name states a change or a piece, a line headed by the entry shows the natural chain unless it says otherwise.
UniProt Q9ULR0: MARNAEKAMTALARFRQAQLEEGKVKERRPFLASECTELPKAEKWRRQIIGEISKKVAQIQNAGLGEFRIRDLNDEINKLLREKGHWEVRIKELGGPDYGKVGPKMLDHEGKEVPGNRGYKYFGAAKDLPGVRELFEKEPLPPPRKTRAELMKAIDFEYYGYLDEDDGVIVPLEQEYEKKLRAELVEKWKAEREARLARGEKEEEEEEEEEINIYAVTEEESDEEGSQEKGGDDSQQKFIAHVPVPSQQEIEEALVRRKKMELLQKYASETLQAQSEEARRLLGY
UniProt Q9Y6M9, whole entry: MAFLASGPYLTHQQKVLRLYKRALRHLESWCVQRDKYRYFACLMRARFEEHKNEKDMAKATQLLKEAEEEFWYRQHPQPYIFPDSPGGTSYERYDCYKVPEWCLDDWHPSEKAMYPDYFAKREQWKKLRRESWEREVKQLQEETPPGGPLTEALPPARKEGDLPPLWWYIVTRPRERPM
UniProt P30085: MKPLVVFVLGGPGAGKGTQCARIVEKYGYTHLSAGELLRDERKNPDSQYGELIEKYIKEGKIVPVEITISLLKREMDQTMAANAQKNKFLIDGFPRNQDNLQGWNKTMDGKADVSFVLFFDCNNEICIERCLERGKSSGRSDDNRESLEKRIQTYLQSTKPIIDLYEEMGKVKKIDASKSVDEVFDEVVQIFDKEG
UniProt Q7Z2Z2: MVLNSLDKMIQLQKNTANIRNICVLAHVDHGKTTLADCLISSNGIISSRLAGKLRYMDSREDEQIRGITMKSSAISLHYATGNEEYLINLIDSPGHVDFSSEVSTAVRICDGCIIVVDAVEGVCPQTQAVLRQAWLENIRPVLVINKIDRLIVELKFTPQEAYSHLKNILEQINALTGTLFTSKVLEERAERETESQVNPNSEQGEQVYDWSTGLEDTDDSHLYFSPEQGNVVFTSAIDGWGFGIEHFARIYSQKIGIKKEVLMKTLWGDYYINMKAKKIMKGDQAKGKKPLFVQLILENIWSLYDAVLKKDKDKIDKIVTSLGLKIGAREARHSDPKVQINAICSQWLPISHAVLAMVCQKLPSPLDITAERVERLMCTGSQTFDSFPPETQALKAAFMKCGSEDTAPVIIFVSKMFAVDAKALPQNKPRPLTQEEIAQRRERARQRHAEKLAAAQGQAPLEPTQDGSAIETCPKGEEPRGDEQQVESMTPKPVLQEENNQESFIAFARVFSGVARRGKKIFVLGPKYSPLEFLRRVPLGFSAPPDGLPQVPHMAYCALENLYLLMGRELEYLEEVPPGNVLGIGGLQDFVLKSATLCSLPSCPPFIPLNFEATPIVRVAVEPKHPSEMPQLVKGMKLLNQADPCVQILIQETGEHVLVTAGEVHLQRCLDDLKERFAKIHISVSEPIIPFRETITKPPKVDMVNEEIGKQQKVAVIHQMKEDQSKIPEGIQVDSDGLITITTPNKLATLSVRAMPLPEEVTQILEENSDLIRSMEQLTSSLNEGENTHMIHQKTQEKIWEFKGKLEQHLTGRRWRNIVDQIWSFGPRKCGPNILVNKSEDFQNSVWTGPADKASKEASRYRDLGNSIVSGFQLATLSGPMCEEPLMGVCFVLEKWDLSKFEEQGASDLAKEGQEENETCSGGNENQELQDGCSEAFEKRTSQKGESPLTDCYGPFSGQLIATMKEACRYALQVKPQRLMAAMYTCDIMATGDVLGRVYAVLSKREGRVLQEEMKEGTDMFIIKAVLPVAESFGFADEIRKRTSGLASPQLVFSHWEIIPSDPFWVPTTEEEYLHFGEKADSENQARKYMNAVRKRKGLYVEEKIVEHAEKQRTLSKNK
UniProt Q9Y6W5, whole entry: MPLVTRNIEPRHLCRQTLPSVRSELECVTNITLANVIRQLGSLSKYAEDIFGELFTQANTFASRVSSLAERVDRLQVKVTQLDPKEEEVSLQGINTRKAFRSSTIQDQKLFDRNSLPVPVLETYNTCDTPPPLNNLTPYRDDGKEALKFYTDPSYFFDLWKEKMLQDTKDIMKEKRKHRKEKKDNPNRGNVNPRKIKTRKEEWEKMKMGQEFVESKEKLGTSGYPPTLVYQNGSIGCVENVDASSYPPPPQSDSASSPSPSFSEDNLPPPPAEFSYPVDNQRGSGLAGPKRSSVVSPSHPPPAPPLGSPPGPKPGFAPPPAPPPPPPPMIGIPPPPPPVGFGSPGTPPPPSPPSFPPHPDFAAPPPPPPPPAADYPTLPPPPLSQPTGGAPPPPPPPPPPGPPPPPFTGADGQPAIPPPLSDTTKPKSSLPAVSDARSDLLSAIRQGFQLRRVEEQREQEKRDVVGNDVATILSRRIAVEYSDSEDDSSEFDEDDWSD
UniProt P11216: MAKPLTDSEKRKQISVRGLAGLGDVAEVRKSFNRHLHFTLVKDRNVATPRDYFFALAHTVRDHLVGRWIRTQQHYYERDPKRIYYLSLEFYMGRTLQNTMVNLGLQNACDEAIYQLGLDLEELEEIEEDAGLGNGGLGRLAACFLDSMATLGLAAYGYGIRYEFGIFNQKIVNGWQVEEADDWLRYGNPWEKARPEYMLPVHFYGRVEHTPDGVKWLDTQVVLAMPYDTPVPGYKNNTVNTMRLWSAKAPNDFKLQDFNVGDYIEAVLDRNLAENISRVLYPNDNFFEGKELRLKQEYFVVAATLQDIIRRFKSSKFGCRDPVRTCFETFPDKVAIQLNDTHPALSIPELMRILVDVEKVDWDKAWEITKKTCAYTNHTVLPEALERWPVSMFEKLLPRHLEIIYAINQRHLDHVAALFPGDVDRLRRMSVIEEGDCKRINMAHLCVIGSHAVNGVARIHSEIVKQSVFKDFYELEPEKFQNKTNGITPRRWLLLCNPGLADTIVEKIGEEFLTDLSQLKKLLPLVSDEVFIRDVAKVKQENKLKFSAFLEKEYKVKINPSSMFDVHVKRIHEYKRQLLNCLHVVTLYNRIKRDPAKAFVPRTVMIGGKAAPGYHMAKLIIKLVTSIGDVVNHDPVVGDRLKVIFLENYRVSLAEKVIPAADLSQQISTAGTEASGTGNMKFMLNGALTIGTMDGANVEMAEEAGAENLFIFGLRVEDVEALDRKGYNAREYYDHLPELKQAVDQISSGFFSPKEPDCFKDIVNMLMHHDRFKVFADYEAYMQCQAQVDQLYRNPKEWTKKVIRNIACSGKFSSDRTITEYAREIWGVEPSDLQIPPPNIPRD
UniProt Q9UHB4: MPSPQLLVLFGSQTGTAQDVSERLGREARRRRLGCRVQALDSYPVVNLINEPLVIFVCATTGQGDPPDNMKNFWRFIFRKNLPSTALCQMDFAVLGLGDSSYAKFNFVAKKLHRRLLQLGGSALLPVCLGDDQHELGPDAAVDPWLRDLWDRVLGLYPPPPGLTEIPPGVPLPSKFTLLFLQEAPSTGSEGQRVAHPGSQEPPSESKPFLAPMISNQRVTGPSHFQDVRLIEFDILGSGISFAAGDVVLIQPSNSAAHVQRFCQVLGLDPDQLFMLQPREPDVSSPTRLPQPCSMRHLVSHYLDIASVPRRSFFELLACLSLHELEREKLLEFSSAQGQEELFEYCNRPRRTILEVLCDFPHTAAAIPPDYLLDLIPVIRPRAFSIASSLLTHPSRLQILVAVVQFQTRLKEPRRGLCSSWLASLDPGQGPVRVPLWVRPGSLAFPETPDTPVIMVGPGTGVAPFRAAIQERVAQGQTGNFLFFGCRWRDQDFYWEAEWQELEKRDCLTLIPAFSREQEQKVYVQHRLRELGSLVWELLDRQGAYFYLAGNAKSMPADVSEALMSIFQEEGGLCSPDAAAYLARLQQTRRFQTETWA
UniProt Q9NYP7: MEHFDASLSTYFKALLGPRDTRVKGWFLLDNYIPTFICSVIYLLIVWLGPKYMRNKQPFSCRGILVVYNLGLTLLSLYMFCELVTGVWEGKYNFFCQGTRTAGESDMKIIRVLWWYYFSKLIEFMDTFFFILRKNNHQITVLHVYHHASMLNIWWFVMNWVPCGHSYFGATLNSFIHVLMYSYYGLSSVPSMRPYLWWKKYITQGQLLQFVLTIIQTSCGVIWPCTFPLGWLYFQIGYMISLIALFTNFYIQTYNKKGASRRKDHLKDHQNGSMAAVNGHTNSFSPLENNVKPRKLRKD
UniProt Q8N4C6: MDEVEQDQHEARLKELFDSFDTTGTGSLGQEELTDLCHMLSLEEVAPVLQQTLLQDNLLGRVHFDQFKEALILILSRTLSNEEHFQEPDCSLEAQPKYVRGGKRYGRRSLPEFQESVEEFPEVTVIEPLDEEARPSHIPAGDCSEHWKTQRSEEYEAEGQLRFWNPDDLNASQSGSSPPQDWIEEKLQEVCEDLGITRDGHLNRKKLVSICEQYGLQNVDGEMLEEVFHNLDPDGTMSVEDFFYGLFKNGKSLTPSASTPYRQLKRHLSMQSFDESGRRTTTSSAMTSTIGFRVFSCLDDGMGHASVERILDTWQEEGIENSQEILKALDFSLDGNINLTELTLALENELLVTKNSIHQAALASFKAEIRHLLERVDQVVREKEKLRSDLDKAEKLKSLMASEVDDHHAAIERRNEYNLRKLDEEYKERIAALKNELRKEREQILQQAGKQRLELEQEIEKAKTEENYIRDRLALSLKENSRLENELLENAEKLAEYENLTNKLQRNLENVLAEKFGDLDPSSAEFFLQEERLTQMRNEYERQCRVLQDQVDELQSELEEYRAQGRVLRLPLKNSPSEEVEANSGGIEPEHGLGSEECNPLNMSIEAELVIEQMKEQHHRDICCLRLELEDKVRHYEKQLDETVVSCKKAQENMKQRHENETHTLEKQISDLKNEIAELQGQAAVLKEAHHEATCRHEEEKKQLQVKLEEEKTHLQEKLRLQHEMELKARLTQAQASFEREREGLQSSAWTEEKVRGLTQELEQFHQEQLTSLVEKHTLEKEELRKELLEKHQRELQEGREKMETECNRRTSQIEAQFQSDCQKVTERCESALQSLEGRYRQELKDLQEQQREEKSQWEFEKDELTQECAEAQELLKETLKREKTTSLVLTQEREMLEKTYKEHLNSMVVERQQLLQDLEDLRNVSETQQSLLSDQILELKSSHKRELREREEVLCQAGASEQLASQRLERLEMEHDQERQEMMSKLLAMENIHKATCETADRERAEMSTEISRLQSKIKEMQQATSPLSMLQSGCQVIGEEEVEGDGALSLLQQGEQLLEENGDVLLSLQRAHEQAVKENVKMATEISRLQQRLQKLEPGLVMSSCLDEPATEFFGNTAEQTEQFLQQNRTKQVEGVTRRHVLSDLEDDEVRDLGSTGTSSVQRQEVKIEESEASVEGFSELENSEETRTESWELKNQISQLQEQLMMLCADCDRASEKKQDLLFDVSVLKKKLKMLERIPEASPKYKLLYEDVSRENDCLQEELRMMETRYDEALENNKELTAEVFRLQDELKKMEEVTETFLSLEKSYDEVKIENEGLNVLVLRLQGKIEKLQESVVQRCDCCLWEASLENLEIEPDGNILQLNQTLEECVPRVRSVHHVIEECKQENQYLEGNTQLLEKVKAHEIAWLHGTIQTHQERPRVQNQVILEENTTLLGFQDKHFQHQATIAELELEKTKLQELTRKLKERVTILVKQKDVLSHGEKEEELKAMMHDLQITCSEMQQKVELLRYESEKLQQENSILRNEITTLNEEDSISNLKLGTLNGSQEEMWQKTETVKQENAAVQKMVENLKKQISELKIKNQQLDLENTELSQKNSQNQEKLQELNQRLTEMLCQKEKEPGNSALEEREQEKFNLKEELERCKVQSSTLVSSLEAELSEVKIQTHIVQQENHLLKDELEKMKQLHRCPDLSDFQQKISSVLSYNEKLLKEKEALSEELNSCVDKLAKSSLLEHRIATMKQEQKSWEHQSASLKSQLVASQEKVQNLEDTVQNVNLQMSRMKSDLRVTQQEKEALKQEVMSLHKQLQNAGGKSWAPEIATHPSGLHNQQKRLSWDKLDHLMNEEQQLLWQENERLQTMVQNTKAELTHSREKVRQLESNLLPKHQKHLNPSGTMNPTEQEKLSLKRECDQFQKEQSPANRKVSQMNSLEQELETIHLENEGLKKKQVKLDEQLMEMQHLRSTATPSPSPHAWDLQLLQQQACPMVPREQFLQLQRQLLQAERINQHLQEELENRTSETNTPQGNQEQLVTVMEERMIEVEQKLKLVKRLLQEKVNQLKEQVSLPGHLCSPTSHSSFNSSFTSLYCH
UniProt Q8IX90, whole entry: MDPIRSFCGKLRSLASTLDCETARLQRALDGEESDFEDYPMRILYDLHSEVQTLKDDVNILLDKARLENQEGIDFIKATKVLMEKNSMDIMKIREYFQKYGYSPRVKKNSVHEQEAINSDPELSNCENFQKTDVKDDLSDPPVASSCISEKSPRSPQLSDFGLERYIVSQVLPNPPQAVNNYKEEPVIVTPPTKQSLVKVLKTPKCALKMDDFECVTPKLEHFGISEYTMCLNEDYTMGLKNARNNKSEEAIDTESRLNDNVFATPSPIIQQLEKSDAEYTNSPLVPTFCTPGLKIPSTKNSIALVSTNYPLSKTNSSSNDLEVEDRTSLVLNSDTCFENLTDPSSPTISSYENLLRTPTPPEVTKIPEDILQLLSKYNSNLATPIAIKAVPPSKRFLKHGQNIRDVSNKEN

Compound: [O-][N+](C(C1=C(C(O)=C2)NC(C(C=C3)=CC=C3Cl)C4C1C=CC4)=C2Cl)=O
Experiment: melting temperature shift (compound 7 minus DMSO); higher = compound stabilises the protein
Settings: 10 µM
Protocol: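 Thermal proteome profiling (TMT mass spectrometry) in intact DAOY medulloblastoma cells or DAOY lysates treated with 10 µM compound 7 or DMSO, heated at 10 temperatures from 40.5 to 73.8 °C for 3 min. Melting curves were fitted with the Bioconductor TPP package, and the melting point difference between compound and vehicle is reported per protein (single curve per condition).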

[1] = system: DAOY cell lysate, treatment time: 20 min, 4 °C
[2] = system: intact DAOY cells, treatment time: 90 min, 37 °C

| Target | melting temperature shift [1] | melting temperature shift [2] |
| --- | --- | --- |
| KHSRP (UniProt Q92945) | 0.388 °C | -2.63 °C |
| ARFIP1 (UniProt P53367) | -0.745 °C | 3.7 °C |
| UniProt P29279 | 2.1 °C | 1.45 °C |
| C18ORF25 (UniProt Q96B23) | 4.17 °C | – |
| ISY1 (UniProt Q9ULR0) | 0.538 °C | – |
| NDUFB9 (UniProt Q9Y6M9) | 0.917 °C | 0.39 °C |
| TPMT (UniProt P51580) | -0.575 °C | 1.74 °C |
| ERMP1 (UniProt Q7Z2K6) | 2.35 °C | – |
| UniProt P35716 | – | -1.62 °C |
| CMPK1 (UniProt P30085) | -0.532 °C | -0.833 °C |
| EFL1 (UniProt Q7Z2Z2) | -0.62 °C | 0.717 °C |
| UniProt Q8N2C7 | 0.46 °C | – |
| WASF2 (UniProt Q9Y6W5) | 0.183 °C | -0.593 °C |
| UniProt Q96KQ4 | -0.339 °C | – |
| PNISR (UniProt Q8TF01) | 1.62 °C | -0.278 °C |
| PYGB (UniProt P11216) | -0.273 °C | -0.0504 °C |
| UniProt Q969R5 | 2.75 °C | – |
| CDC16 (UniProt Q13042) | -0.874 °C | -0.259 °C |
| CMTR1 (UniProt Q8N1G2) | -1.06 °C | -0.145 °C |
| NDOR1 (UniProt Q9UHB4) | – | -1.07 °C |
| ANKRD27 (UniProt Q96NW4) | -0.0497 °C | – |
| ELOVL5 (UniProt Q9NYP7) | 0.233 °C | -0.867 °C |
| UniProt Q8N4C6 | – | -0.758 °C |
| TSC22D2 (UniProt O75157) | – | 1.82 °C |
| RPL5 (UniProt P46777) | 0.222 °C | -0.514 °C |
| UniProt Q15012 | 1.57 °C | – |
| SKA3 (UniProt Q8IX90) | 0.0188 °C | -0.133 °C |
| P0CG08 (UniProt B7ZAQ6) | -1.11 °C | -2.77 °C |
| MNAT1 (UniProt P51948) | -0.648 °C | -0.437 °C |

Eight neighbouring entries already listed, for reference:

| Target | melting temperature shift [1] | melting temperature shift [2] |
| --- | --- | --- |
| ANKRD27 (UniProt Q96NW4) | -0.0497 °C | – |
| ELOVL5 (UniProt Q9NYP7) | 0.233 °C | -0.867 °C |
| UniProt Q8N4C6 | – | -0.758 °C |
| TSC22D2 (UniProt O75157) | – | 1.82 °C |
| RPL5 (UniProt P46777) | 0.222 °C | -0.514 °C |
| UniProt Q15012 | 1.57 °C | – |
| SKA3 (UniProt Q8IX90) | 0.0188 °C | -0.133 °C |
| P0CG08 (UniProt B7ZAQ6) | -1.11 °C | -2.77 °C |
